Values from PubChem BioAssay AID1259424 (University of Nebraska Medical Center, 2018).
Here is one part, drawn at random, of about 14,000 deposited reagents. 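Higher correlation or smaller distance means closer resemblance to KSR1 loss; control wells, including KSR1 knockdowns, recur on many plates.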 Not all columns of the deposit are shown. Not stated in the record: the time to read-out.

Purpose: 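Seek colon cancer survival genes behaving like KSR1, using a six-gene signature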 (primary screen)
System: human HCT116 colon cancer cells
Reagents: siRNA pool against human genes, 50 nM
Read-out: 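Log2 levels of six mRNAs (branched-DNA multiplex), adjusted by two reference genes and the non-targeting median, then scored against the average KSR1 knockdown pattern as Pearson r and euclidean distance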
Scale: mean correlation with KSR1 profile: higher = expression change more like KSR1 knockdown

NGRN: mean correlation with KSR1 profile = -0.806
PIGU: mean correlation with KSR1 profile = 0.264
FGFR4: mean correlation with KSR1 profile = -0.115
LMAN2L: mean correlation with KSR1 profile = 0.51
CYP3A7: mean correlation with KSR1 profile = 0.252
GAS6: mean correlation with KSR1 profile = -0.555
ROCK2: mean correlation with KSR1 profile = 0.0786
PHAX: mean correlation with KSR1 profile = 0.581
ADAM7: mean correlation with KSR1 profile = -0.612
OR52A1: mean correlation with KSR1 profile = 0.898
STARD8: mean correlation with KSR1 profile = -0.686
SEC14L1: mean correlation with KSR1 profile = -0.0317
PRODH: mean correlation with KSR1 profile = 0.821
NDUFB3: mean correlation with KSR1 profile = -0.368
L3MBTL2: mean correlation with KSR1 profile = 0.471
COXFA4: mean correlation with KSR1 profile = -0.269
H3C1: mean correlation with KSR1 profile = -0.577
FER: mean correlation with KSR1 profile = 0.876
TSLIG2: mean correlation with KSR1 profile = -0.706
TAS2R9: mean correlation with KSR1 profile = -0.0746
ATP11A: mean correlation with KSR1 profile = -0.499
IL12RB2: mean correlation with KSR1 profile = -0.685
WT1-AS: mean correlation with KSR1 profile = 0.575
SMPX: mean correlation with KSR1 profile = 0.109
SPRR2A: mean correlation with KSR1 profile = 0.368
EXOSC10: mean correlation with KSR1 profile = -0.151
PPIC: mean correlation with KSR1 profile = -0.382
EIF2AK1: mean correlation with KSR1 profile = 0.368
KIF26A: mean correlation with KSR1 profile = 0.465
LAT: mean correlation with KSR1 profile = -0.145
MUS81: mean correlation with KSR1 profile = 0.745
SUCO: mean correlation with KSR1 profile = -0.283
SLC71A2: mean correlation with KSR1 profile = 0.509
DPF2: mean correlation with KSR1 profile = 0.0301
MRPL37: mean correlation with KSR1 profile = -0.45
EWSR1: mean correlation with KSR1 profile = -0.596
